# Where a chain is given by its changes, count along the chain named. The list shows a part of the results. At the low end of the ranking the order means little.
# Experiments:
# Conditions in all cases: yeast three-hybrid, YBZ-1, SC-Leu-His + 0.5 mM 3-AT, 4 days
# [1] = biological target: T1, PUM1 PUF domain R5-NGC C1007N + R1008G + Q1011C (UniProt Q14671)
# T1 sequence: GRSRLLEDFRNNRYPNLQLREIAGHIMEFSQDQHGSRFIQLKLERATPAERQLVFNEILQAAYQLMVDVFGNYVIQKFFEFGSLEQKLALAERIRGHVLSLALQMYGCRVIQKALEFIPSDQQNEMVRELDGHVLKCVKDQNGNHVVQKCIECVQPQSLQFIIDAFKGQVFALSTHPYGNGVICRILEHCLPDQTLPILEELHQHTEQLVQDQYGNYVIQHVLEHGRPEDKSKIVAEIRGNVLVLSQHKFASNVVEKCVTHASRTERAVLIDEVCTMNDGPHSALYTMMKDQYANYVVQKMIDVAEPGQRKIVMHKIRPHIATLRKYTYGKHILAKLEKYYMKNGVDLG
# [2] = biological target: T2, PUM1 PUF domain R5-NPR C1007N + R1008P + Q1011R (UniProt Q14671)
# T2 sequence: T1 sequence with G181P, C184R
# [3] = biological target: T3, PUM1 PUF domain R5-NSV C1007N + R1008S + Q1011V (UniProt Q14671)
# T3 sequence: T1 sequence with G181S, C184V
# [4] = biological target: T4, PUM1 PUF domain R5-NVR C1007N + R1008V + Q1011R (UniProt Q14671)
# T4 sequence: T1 sequence with G181V, C184R
# [5] = biological target: T5, PUM1 PUF domain R5-QGC C1007Q + R1008G + Q1011C (UniProt Q14671)
# T5 sequence: T1 sequence with N180Q
# [6] = biological target: T6, PUM1 PUF domain R5-QIR C1007Q + R1008I + Q1011R (UniProt Q14671)
# T6 sequence: T1 sequence with N180Q, G181I, C184R
# [7] = biological target: T7, PUM1 PUF domain R5-QKA C1007Q + R1008K + Q1011A (UniProt Q14671)
# T7 sequence: T1 sequence with N180Q, G181K, C184A
# [8] = biological target: T8, PUM1 PUF domain R5-QKC C1007Q + R1008K + Q1011C (UniProt Q14671)
# T8 sequence: T1 sequence with N180Q, G181K
# [9] = biological target: T9, PUM1 PUF domain R5-QKN C1007Q + R1008K + Q1011N (UniProt Q14671)
# T9 sequence: T1 sequence with N180Q, G181K, C184N
# [10] = biological target: T10, PUM1 PUF domain R5-QKR C1007Q + R1008K + Q1011R (UniProt Q14671)
# T10 sequence: T1 sequence with N180Q, G181K, C184R
# [11] = biological target: T11, PUM1 PUF domain R5-QLR C1007Q + R1008L + Q1011R (UniProt Q14671)
# T11 sequence: T1 sequence with N180Q, G181L, C184R
# [12] = biological target: T12, PUM1 PUF domain R5-QSC C1007Q + R1008S + Q1011C (UniProt Q14671)
# T12 sequence: T1 sequence with N180Q, G181S
# [13] = biological target: T13, PUM1 PUF domain R5-QVI C1007Q + R1008V + Q1011I (UniProt Q14671)
# T13 sequence: T1 sequence with N180Q, G181V, C184I
# [14] = biological target: T14, PUM1 PUF domain R5-QVR C1007Q + R1008V + Q1011R (UniProt Q14671)
# T14 sequence: T1 sequence with N180Q, G181V, C184R
# [15] = biological target: T15, PUM1 PUF domain R5-RCD C1007R + R1008C + Q1011D (UniProt Q14671)
# T15 sequence: T1 sequence with N180R, G181C, C184D
# [16] = biological target: T16, PUM1 PUF domain R5-RMC C1007R + R1008M + Q1011C (UniProt Q14671)
# T16 sequence: T1 sequence with N180R, G181M
# [17] = biological target: T17, PUM1 PUF domain R5-RNE C1007R + R1008N + Q1011E (UniProt Q14671)
# T17 sequence: T1 sequence with N180R, G181N, C184E
# [18] = biological target: T18, PUM1 PUF domain R5-RPC C1007R + R1008P + Q1011C (UniProt Q14671)
# T18 sequence: T1 sequence with N180R, G181P
# [19] = biological target: T19, PUM1 PUF domain R5-RPD C1007R + R1008P + Q1011D (UniProt Q14671)
# T19 sequence: T1 sequence with N180R, G181P, C184D
# [20] = biological target: T20, PUM1 PUF domain R5-SED C1007S + R1008E + Q1011D (UniProt Q14671)
# T20 sequence: T1 sequence with N180S, G181E, C184D
sequence,measurement,setting,value
GGCUAGAACUAGUGGAUCCCCCGGCGCCCGGCGGCUCGAGCCCGGGUAAGUGUAAAUAGUCUGCAUGCCGCCGGGCGCCAUGCCUGCAGGUCGACUCUAGAAAACAUG,binding signal (log2 enrichment (interaction score)),[1],< -5.29
same,binding signal (log2 enrichment (interaction score)),[2],< -5.87
same,binding signal (log2 enrichment (interaction score)),[3],< -6.52
same,binding signal (log2 enrichment (interaction score)),[4],< -6.54
same,binding signal (log2 enrichment (interaction score)),[5],< -6.15
same,binding signal (log2 enrichment (interaction score)),[6],< -6.7
same,binding signal (log2 enrichment (interaction score)),[7],< -7.7
same,binding signal (log2 enrichment (interaction score)),[8],< -6.15
same,binding signal (log2 enrichment (interaction score)),[9],< -5.58
same,binding signal (log2 enrichment (interaction score)),[10],< -7.6
same,binding signal (log2 enrichment (interaction score)),[11],< -7.78
same,binding signal (log2 enrichment (interaction score)),[12],< -7.14
same,binding signal (log2 enrichment (interaction score)),[13],< -7.07
same,binding signal (log2 enrichment (interaction score)),[14],< -8.46
same,binding signal (log2 enrichment (interaction score)),[15],< -5.79
same,binding signal (log2 enrichment (interaction score)),[16],< -5.55
same,binding signal (log2 enrichment (interaction score)),[17],< -5.3
same,binding signal (log2 enrichment (interaction score)),[18],< -7.79
same,binding signal (log2 enrichment (interaction score)),[19],< -7.65
same,binding signal (log2 enrichment (interaction score)),[20],< -6.54

# Quoted at random: two entries already listed, in no set order.
sequence,measurement,setting,value
GGCUAGAACUAGUGGAUCCCCCGGCGCCCGGCGGCUCGAGCCCGGGUAAGUGUAAAUAGUCUGCAUGCCGCCGGGCGCCAUGCCUGCAGGUCGACUCUAGAAAACAUG,binding signal (log2 enrichment (interaction score)),[6],< -6.7
same,binding signal (log2 enrichment (interaction score)),[3],< -6.52

# Source: paper PMC8384837
